# Results from one PubChem assay

Data taken from PubChem BioAssay AID1159506, deposited by NCATS (2015).

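Luminescence from an EWS-FLI1 target-promoter (NR0B1) reporter, set against a CMV-promoter reporter, two days after silencing single genes in TC32 Ewing sarcoma cells. Each siRNA was applied at 20 nM. A z-score of the log NR0B1-over-CMV signal, less the median of siRNAs with the same seed; more negative means a stronger specific loss of the NR0B1 reporter.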

This is part of the screen; most of the strongest results are not listed here. Sequences are the guide (antisense) strand, without overhang.

siRNA: UUGCCGGUAACAGAAGAGG
target gene: RTKN
seed-corrected z-score: 0.07721

siRNA: UGAUAUACUCUGUGGAAUC
target gene: MRPS22
seed-corrected z-score: -1.479

siRNA: UAAGUGGAUGUGAUCUCUC
target gene: CCNYL1
seed-corrected z-score: 0.9193

siRNA: UUGUCAUCAACGGUGAUGG
target gene: JAK1
seed-corrected z-score: 0.4771

siRNA: UUCAGAUCGAGCAGGUUGC
target gene: AP1B1
seed-corrected z-score: -1.865

siRNA: UUAUACACCACUAUCUUGG
target gene: WRAP73
seed-corrected z-score: 0.1497

siRNA: UGUAGUAGUAAGUCUCUCC
target gene: EFNA4
seed-corrected z-score: 0.4691

siRNA: UUAUGGUAGCAAUGAAUUC
target gene: ZC2HC1A
seed-corrected z-score: -0.1886

siRNA: AUACUAUAUAGGAAGGACC
target gene: GPR155
seed-corrected z-score: -0.05897

siRNA: UUGGUUACUCUUAAUCUCU
target gene: SLC7A3
seed-corrected z-score: -0.4924

siRNA: UUAUAGUCAAAGUCUCAUC
target gene: FGD6
seed-corrected z-score: -0.6668

siRNA: UUAGACGUAACAUCGGACC
target gene: TIGD4
seed-corrected z-score: -0.1558

siRNA: UACCUUAGCAAUAGUAUCC
target gene: RECK
seed-corrected z-score: -0.1245

siRNA: UAAGGUUCUGGUUGGUAGG
target gene: CCSER1
seed-corrected z-score: -0.2616

siRNA: UUCGGAAAAAUUGAACUCG
target gene: SCRN1
seed-corrected z-score: -0.1729

siRNA: UUGGAUUCAUCUAGGGUGC
target gene: WBP4
seed-corrected z-score: 0.6372

siRNA: UCUAGUAAAAUUUUCAGUC
target gene: MEX3A
seed-corrected z-score: 0.2835

siRNA: AAAUUAAUAAAGGCAUAAC
target gene: SF3B4
seed-corrected z-score: -0.2439

siRNA: UUAGGUACUAAGGUUCACC
target gene: TP53
seed-corrected z-score: -0.03425

siRNA: AAAUGUUCAAUCUUUCUCC
target gene: LOC100420746
seed-corrected z-score: 0.5888

siRNA: UCGGGAACUUAGAAGAGCC
target gene: PPP1R15B
seed-corrected z-score: 0.3408

siRNA: UUGGAUACCUGUGACACUG
target gene: PBX3
seed-corrected z-score: -0.05712

siRNA: UAGCAAGUAACCAUCAGGG
target gene: GPHA2
seed-corrected z-score: 0.8799

siRNA: AUUGGAUUUCCGAAUUUGG
target gene: ADIRF
seed-corrected z-score: 0.117

siRNA: UAUUCGAUCAAUGGUUCCC
target gene: SNX30
seed-corrected z-score: 0.7302

siRNA: UUUGCCAACUUGCUCCACC
target gene: NOXA1
seed-corrected z-score: 0.4063

siRNA: UAUCUUCAUCUCACAGAGG
target gene: TMEM105
seed-corrected z-score: -0.9155

siRNA: UUUAGUCUCCGCCUUGUCC
target gene: FCHO1
seed-corrected z-score: 0.01887

siRNA: UAGAUCAGACCAGAGAUCC
target gene: HIST1H4A
seed-corrected z-score: -0.1479

siRNA: AUAUUGGUCAGGAAAGACU
target gene: SAYSD1
seed-corrected z-score: 2.24

siRNA: UCACUUGCAACCAAACUAG
target gene: GVINP1
seed-corrected z-score: -1.158

siRNA: UUUAUCGUAAUCAUCAGCG
target gene: EIF1
seed-corrected z-score: -0.07648

siRNA: AAUAGGUUCACUUCGGGUG
target gene: CD200R1L
seed-corrected z-score: -0.158

siRNA: AAAUAUAUAACUUUCCUCU
target gene: LRP11
seed-corrected z-score: 0.6297

siRNA: UCUGAUGUCACAUGUCUGC
target gene: DEDD
seed-corrected z-score: -0.8548

siRNA: UCAGUUCAAAGUCAAAGAC
target gene: AKR1B1
seed-corrected z-score: 0.5824

siRNA: AUAAUUAGUACUACUAUGC
target gene: ZNF148
seed-corrected z-score: -0.1216

siRNA: UGAGCUCAUAUCCAGGAGU
target gene: VAMP5
seed-corrected z-score: -0.05673

siRNA: UCACUGAAAACGAAAGCUC
target gene: H2AFB2
seed-corrected z-score: 0.3226

siRNA: AGCUUGUUAACAGCUACGC
target gene: MAP3K11
seed-corrected z-score: 1.429

siRNA: UCUUUGCUGUCAAACAUGC
target gene: UPK3A
seed-corrected z-score: 0.7097

siRNA: UGGUCAAUAAUGGACUUCC
target gene: DOPEY2
seed-corrected z-score: -0.07121

siRNA: UUCCCAAUCACCACAGUGC
target gene: LOC648999
seed-corrected z-score: 0.2193

siRNA: AGAGUGGUUAGUAAAGGGU
target gene: SSUH2
seed-corrected z-score: 0.3266

siRNA: UACUGGUCAGGAGUAAGUG
target gene: B4GALT3
seed-corrected z-score: -0.2852

siRNA: AGAACUUACACUUAUCUCC
target gene: ZC3H15
seed-corrected z-score: 0.5306

siRNA: AAAAGGUCUGGAACAUCUC
target gene: DNAJC27
seed-corrected z-score: 1.962

siRNA: UGCAUUAUAAGGGCGUAUC
target gene: ZBTB11
seed-corrected z-score: -1.048

siRNA: AUAGGCAUCAUUCACCAGG
target gene: HSCB
seed-corrected z-score: 3.087

siRNA: UUACAUAGAUCUGUCGUCC
target gene: CASK
seed-corrected z-score: -0.6509